Hit rate of the full screen: of about 1,200 compounds, fewer than 10 were called active.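 How the source made its calls: active means inhibition reaching a set limit at one or more tested concentrations; inactive means inhibition under that limit at every dose.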 The list shows a part of the results. Entries with a potency or affinity are not part of this list.
assay: RAM pathway signaling blockade in S. cerevisiae – dose response (AID 1307);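 further: 0% = DMSO vehicle wells and 100% = 10 µM 1-NA-PP1 control; higher inhibition means more yeast growth since RAM block rescues cells from 5-FOA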; conditions: S. cerevisiae RAM network URA3 reporter, 5-FOA growth OD615, hits give high values, yeast express analog-sensitive mutant Cbk1 kinase; at 100 µM unless noted

Max inhibition, inactive:
O=C(CC12CC3CC(CC(C3)C1)C2)NC(=S)NCc1ccco1 5.22% [at 50 µM]
CCCC(C(=O)n1nc(C)cc1C)C(NS(=O)(=O)c1ccc(C)cc1)c1ccccc1 (stereo not drawn) 3.05% [at 6.25 µM]
CCCCc1ccc(N=N/C(C(=O)Nc2ccccc2OC)=C(/C)O)cc1 4.87% [at 50 µM]
Cc1ccccc1Oc1ccc(-c2nc(N)nc(N)n2)cc1 3.9%
CCCCc1ccc(-c2csc(/C(C#N)=C/c3ccc(C)o3)n2)cc1 4.24%
CC(C)CCC(C)N=Cc1c(O)n(Cc2ccccc2)c(=O)c2ccccc12 (stereo not drawn) 10.6%
CCOC(=O)c1cnc(SC)nc1Nc1cccc(F)c1 4.37%
O=C(COc1ccccc1Cl)Nc1cc(Cl)ccc1Oc1ccccc1 4.01% [at 0.196 µM]
CCOC(=O)N1CCC(N(CCN(C)C)C(=S)Nc2cccc(SC)c2)CC1 2.41% [at 0.782 µM]
FC(F)(F)c1cccc(NC(=S)NC(c2ccccc2)c2ccccc2)c1 6.93%
CCCCn1c(O)c(/C=C/C=C/C=Nc2ccccc2)sc1=S 9.68%
COc1ccnc(N2CCN(c3ccc(Cl)cc3)CC2)c1C#N 5.35% [at 50 µM]
O=C(NCCOc1ccccc1)c1cc(C(=O)NCCOc2ccccc2)cc([N+](=O)[O-])c1 2.97% [at 3.125 µM]
CC(OC(=O)c1ccccc1NS(=O)(=O)c1cccc(C(F)(F)F)c1)C(=O)N(C)Cc1ccccc1 (stereo not drawn) 3.04% [at 50 µM]
Cc1ccc(NC2=C(Cl)C(=O)OC2OC(=O)c2ccccc2C)cc1 (stereo not drawn) 3.61% [at 50 µM]
COCCNc1nc(SCc2ccccc2)nc2sc3c(c12)CCC3 2.54%
COc1ccc(C(=O)Nc2cc(OCc3ccccc3)c(Cl)cc2Cl)cc1 3.51%
CC(C)(C)OC(=O)COc1cc(O)c2c(=O)cc(-c3ccccc3)oc2c1 2.44% [at 1.563 µM]
COc1ccc(Nc2nc3c(C)cccc3cc2C#N)c(OC)c1 5.99% [at 25 µM]
CCOC(=O)C1=C(O)/C(=C/c2ccc(OCC(=O)O)c(OC)c2)SC1=Nc1ccc(OC)cc1 12.5%
Cc1ccccc1NC(=S)NCCC(c1ccccc1)c1ccccc1 5.53%
CCCC[C@@H]1C[C@H]1[C@@H](NC(=O)c1ccccc1)c1ccccc1C(F)(F)F 3.06%
COc1ccc(OC)c(C2C3=C(N=c4s/c(=C\c5cccc(O)c5)c(=O)n42)c2ccccc2CC3)c1 (stereo not drawn) 10.2%

2 records drawn at random from those above:
Max inhibition, inactive:
CC(OC(=O)c1ccccc1NS(=O)(=O)c1cccc(C(F)(F)F)c1)C(=O)N(C)Cc1ccccc1 (stereo not drawn) 3.04% [at 50 µM]
Cc1ccccc1NC(=S)NCCC(c1ccccc1)c1ccccc1 5.53%
